This series can be described thus: general procedure: Fmoc solid-phase peptide synthesis in flow; TentaGel-S-NH2 ([…]) with HMPA linker (1, 3-6) or Rink amide linker (7-11); HATU/DIPEA; PyAOP/sym-collidine for Cys. As to conditions: for step yield: purification step, based on crude yield; for isolated yield: overall.
Setting [1] is: whole synthesis, analytical RP-HPLC, scale of the general procedure ca. 0.15 mmol.

Capitellacin gave a step yield of 26%. The same substance gave an isolated mass (whole synthesis) of 11.7 mg. Also, the “final HPLC purity” value (whole synthesis, 214 nm, scale of the general procedure ca. 0.15 mmol) is on record as over 97%. In addition, the “crude HPLC purity” value under setting [1] is “ca. 60%”. Besides, the crude yield (whole synthesis, based on initial resin loading, scale of the general procedure ca. 0.15 mmol) came out at 38%. The same substance showed an isolated yield (whole synthesis, accounting for resin splitting, scale of the general procedure ca. 0.15 mmol) of 10%. For the setting “whole synthesis, scale 0.05 mmol”, this substance registered a crude mass of 45 mg.

Vinyl Sulphide Analogue, 'Lys18-D-Cys5' had a step yield of 11.6%. For the same substance, the “crude HPLC purity” value (cyclisation step, analytical RP-HPLC) was “approximately 60%”. Also, the isolated mass (whole synthesis) stood at 8.0 mg. For the same substance, under setting [1], the “final HPLC purity” value is over 96% and the “final purity (method not given)” value stood at 96%. This substance also yielded an isolated yield (whole synthesis, scale of the general procedure ca. 0.15 mmol) of 2.2%.

These data come from paper PMC11273936 (Antibiotics, 2024).
